Experimental data from doi:10.1101/2021.06.01.446599.

What was measured:
Test in all cases: CeLINC
[1] = target: T1, GFP::MAPH-1.1 (C. elegans) (UniProt P91859)
T1 sequence: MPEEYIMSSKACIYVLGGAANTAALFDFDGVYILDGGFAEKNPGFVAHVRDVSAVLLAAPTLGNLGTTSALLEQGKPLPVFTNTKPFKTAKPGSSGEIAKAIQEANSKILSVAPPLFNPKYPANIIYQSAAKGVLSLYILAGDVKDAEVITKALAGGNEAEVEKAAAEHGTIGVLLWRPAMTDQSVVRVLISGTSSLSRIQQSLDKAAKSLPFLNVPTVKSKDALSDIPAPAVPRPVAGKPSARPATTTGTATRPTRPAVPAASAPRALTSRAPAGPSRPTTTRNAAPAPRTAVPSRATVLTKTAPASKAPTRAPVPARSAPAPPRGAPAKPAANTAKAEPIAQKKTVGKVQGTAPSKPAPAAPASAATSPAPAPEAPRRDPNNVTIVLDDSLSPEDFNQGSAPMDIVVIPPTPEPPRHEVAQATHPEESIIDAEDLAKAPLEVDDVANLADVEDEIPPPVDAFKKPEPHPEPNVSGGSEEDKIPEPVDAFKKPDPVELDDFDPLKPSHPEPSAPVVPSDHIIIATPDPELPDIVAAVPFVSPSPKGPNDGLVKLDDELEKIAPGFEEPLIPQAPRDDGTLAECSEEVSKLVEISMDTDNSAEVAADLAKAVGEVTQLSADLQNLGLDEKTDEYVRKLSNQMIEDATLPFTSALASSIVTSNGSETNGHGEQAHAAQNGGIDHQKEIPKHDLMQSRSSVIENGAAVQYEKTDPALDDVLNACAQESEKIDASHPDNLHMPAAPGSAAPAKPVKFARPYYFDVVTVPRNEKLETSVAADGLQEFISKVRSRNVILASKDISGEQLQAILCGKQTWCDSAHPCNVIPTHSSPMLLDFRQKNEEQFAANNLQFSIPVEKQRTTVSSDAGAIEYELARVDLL

[2] = target: T2, LET-413 (fluorescently tagged at the endogenous locus) (C. elegans) (UniProt O61967)
T2 sequence: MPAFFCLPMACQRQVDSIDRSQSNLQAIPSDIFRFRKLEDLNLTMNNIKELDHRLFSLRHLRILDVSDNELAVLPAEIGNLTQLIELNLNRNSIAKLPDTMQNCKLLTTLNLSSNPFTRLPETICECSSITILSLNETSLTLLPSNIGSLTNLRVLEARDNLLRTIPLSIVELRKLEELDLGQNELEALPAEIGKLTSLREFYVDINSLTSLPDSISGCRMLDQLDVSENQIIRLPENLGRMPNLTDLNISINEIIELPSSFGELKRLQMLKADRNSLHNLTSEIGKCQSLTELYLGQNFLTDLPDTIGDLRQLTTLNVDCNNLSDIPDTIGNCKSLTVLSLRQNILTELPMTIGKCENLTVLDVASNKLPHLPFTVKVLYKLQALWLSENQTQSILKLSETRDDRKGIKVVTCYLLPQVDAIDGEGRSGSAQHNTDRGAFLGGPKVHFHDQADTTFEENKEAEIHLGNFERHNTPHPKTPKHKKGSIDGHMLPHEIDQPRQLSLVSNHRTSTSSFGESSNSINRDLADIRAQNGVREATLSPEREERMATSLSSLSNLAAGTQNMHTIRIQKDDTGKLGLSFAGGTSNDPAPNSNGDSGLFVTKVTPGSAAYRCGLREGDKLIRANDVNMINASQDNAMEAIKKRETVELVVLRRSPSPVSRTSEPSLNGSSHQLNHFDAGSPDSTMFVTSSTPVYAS

[3] = target: T3, DLG-1 (fluorescently tagged at the endogenous locus, Figure 5A, B, D, E) (C. elegans) (UniProt G5ECY0)
T3 sequence: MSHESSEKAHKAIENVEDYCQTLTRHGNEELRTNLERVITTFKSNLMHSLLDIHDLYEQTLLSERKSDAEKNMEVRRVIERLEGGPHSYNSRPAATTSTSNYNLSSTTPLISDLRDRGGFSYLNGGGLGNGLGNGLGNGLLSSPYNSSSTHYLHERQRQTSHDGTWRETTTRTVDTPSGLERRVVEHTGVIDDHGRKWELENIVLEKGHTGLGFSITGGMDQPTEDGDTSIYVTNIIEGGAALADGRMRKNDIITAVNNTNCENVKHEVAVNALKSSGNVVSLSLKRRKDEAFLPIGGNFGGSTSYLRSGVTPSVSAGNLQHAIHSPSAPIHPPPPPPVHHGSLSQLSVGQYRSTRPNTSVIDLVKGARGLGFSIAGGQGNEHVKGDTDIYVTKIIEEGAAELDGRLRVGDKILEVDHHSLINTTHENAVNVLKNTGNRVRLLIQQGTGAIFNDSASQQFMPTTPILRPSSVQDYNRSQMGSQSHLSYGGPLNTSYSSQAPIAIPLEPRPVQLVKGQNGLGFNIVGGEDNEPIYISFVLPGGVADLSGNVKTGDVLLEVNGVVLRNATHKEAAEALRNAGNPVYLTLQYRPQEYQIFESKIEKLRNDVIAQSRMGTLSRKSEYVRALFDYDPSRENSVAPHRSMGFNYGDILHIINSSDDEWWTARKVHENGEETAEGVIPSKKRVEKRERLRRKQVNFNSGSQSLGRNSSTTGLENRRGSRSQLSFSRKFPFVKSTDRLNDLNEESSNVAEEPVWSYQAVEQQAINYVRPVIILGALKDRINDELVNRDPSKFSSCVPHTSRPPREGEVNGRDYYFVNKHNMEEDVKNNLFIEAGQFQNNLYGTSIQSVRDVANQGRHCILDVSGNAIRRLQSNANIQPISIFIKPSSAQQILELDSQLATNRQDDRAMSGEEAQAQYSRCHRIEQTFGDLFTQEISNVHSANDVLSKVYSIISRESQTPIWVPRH

GFP::PKC-3 (C. elegans) = target: T4, GFP::PKC-3 (C. elegans) (UniProt Q19266)
T4 sequence: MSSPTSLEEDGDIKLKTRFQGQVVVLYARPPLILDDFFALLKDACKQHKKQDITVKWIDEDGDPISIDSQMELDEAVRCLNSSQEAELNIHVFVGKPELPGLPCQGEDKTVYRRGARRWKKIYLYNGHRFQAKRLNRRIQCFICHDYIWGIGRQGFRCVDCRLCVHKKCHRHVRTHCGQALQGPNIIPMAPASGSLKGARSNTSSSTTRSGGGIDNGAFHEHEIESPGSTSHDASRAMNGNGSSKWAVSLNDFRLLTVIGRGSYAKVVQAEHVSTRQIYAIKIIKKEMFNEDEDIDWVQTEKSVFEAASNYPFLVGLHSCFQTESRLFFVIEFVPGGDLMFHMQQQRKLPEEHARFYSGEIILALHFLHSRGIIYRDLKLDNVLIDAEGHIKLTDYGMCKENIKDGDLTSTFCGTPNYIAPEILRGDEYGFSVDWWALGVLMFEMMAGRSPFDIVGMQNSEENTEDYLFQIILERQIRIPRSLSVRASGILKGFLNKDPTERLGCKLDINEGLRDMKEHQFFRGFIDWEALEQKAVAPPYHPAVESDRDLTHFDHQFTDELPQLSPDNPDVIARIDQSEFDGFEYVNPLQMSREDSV

ERM-1::AID::mCherry (C. elegans) was tested, and the binding [1] was “no binding”.
With LGL-1::mScarlet (C. elegans) the binding [2] was “no binding”, the binding [3] was “no binding” and the binding (GFP::PKC-3 (C. elegans)) was “no binding”.

These are yes or no findings as the source states them, for the method shown. Where a sequence is shown, tags or fusion partners need not be part of it.
